This passage reports binding results from article PMC12671161.

In the assay the target is T1, Flag-IRF3 (UniProt Q14653).
T1 sequence: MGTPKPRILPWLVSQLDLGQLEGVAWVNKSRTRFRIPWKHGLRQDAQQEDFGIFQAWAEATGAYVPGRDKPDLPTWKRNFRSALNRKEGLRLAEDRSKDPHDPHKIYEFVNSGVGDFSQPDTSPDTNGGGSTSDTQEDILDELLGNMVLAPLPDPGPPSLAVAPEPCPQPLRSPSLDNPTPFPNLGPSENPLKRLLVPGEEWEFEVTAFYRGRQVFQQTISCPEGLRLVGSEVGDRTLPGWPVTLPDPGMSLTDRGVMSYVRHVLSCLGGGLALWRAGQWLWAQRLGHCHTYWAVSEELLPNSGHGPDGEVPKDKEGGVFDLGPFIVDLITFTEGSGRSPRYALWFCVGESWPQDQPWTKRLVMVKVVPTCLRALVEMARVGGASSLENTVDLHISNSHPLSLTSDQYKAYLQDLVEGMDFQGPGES
Briefly: co-IP.

Results are given in words; binding and its absence hold for the method and conditions named. Binding seen in cells or lysates may run through a third protein. Some binding calls cover weakened binding; strength is not graded here. Sequences can lack the tags named with a protein.

B1: HA-TBK1 (enzyme, UniProt Q9UHD2 1-729)
chain: MQSTSNHLWLLSDILGQGATANVFRGRHKKTGDLFAIKVFNNISFLRPVDVQMREFEVLKKLNHKNIVKLFAIEEETTTRHKVLIMEFCPCGSLYTVLEEPSNAYGLPESEFLIVLRDVVGGMNHLRENGIVHRDIKPGNIMRVIGEDGQSVYKLTDFGAARELEDDEQFVSLYGTEEYLHPDMYERAVLRKDHQKKYGATVDLWSIGVTFYHAATGSLPFRPFEGPRRNKEVMYKIITGKPSGAISGVQKAENGPIDWSGDMPVSCSLSRGLQVLLTPVLANILEADQEKCWGFDQFFAETSDILHRMVIHVFSLQQMTAHKIYIHSYNTATIFHELVYKQTKIISSNQELIYEGRRLVLEPGRLAQHFPKTTEENPIFVVSREPLNTIGLIYEKISLPKVHPRYDLDGDASMAKAITGVVCYACRIASTLLLYQELMRKGIRWLIELIKDDYNETVHKKTEVVITLDFCIRNIEKTVKVYEKLMKINLEAAELGEISDIHTKLLRLSSSQGTIETSLQDIDSRLSPGGSLADAWAHQEGTHPKDRNVEKLQVLLNCMTEIYYQFKKDKAERRLAYNEEQIHKFDKQKLYYHATKAMTHFTDECVKKYEAFLNKSEEWIRKMLHLRKQLLSLTNQCFDIEEEVSKYQEYTNELQETLPQKMFTASSGIKHTMTPIYPSSNTLVEMTLGMKKLKEEMEGVVKELAENNHILERFGSLTMDGGLRNVDCL
With B1, the binding entry is listed as “binds”.
